The target in test [1] is T1, Rad4 Δβ-hairpin2, crosslinkable construct <SC40> (residues 101–632, lacking 515–527, V131C/C132S), thrombin-digested (yeast) (UniProt P14736).
T1 sequence (chain, Cys131 disulfide-crosslinked to the dG* of the CCC/GGG DNA): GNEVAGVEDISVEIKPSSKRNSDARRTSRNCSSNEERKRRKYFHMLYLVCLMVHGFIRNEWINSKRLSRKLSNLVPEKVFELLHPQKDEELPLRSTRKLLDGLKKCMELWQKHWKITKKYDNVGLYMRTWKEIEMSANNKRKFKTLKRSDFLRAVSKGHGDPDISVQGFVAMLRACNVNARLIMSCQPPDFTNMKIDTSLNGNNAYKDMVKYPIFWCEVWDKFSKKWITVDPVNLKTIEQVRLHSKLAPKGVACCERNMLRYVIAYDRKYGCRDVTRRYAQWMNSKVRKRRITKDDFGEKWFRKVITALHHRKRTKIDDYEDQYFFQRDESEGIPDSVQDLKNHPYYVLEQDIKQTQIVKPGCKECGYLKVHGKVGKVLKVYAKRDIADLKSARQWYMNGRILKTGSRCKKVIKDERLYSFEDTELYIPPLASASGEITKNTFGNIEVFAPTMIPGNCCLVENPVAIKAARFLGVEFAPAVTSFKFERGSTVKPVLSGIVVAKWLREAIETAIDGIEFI
Briefly: crystal structure; Rad4 mutant–Rad23 complex disulfide-tethered to CCC/GGG matched DNA; hanging-drop vapor diffusion at 4°C, 50 mM BTP-HCl, 150–180 mM NaCl, 5–15% isopropanol, pH 6.8; molecular replacement with the protein portion of 4YIR; both purified.

Test [2] deals with T2, Rad4 Δβ-hairpin3, crosslinkable construct <SC41b> (residues 101–632, lacking 599–605, V131C/C132S), thrombin-digested (yeast) (UniProt P14736).
T2 sequence (chain, Cys131 disulfide-crosslinked to the dG* of the CCC/GGG DNA): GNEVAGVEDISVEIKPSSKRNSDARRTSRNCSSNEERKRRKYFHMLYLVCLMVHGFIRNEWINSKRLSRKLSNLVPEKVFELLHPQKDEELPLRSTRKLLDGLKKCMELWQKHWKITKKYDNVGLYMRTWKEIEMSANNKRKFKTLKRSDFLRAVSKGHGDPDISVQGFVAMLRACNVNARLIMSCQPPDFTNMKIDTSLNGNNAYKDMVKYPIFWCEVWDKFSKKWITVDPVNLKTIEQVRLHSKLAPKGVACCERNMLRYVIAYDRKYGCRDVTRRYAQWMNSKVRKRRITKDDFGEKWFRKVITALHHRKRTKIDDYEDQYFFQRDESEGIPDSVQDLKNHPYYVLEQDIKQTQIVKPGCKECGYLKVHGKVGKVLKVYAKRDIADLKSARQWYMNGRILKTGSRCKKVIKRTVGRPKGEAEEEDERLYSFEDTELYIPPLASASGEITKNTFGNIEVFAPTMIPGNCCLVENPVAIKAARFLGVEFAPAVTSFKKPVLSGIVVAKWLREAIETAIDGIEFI
The test is described as above.

These are yes or no findings as the source states them, for the method shown. Some results given as binding are weak or reduced against the parent protein; the word gives no strength.

B1: Rad23 construct after thrombin digestion (Rad4-binding and UBA2 domains; UBL domain removed) (domain or fragment, UniProt P32628 230-398)
chain: GNASSGALGTTGGATDAAQGGPPGSIGLTVEDLLSLRQVVSGNPEALAPLLENISARYPQLREHIMANPEVFVSMLLEAVGDNMQDVMEGADDMVEGEDIEVTGEAAAAGLGQGEGEGSFQVDYTPEDDQAISRLCELGFERDLVIQVYFACDKNEEAAANILFSDHAD
On to B1, for which the binding result in test [1] and in test [2] was “binds” throughout.

The record behind these values is publication PMC7708039, “Tethering-facilitated DNA ‘opening’ and complementary roles of β-hairpin motifs in the Rad4/XPC DNA damage sensor protein”.
